Test results: patent US4322545A, “Benzoic acid esters” (priority 1981, dated 1982)

Assay: Odor, direct comparison

SMILES: CCCCCCCCCCCCCCOC(=O)c1ccccc1 [Myristyl benzoate, myristyl (C14) benzoate]
- Fragrance level to overcome inherent odor of the formula and establish a detectable level of fragrance: > 0.25%
